Record: PubChem BioAssay AID1508597 (Cure First, 2020)
This is an unselected part of the about 2,100 reagents, in one setting of the screen. 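Calls flag viability under 80% in either arm, not effects specific to rucaparib; the reference for percent is not stated.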 Entries without a mark were called inactive. Not given: the 100% reference.

Assay: 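Survival screen with siRNA in ovarian cancer cells derived from patients, with or without rucaparib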 (primary screen)
Cell system: human ovarian carcinoma lines grown from tumours: OCI-P5x (papillary serous) and OCI-C5x (clear cell)
Reagent: siRNA pool against human genes, 1.25 pmol siRNA per well
Timing: 72 h or 96 h, depending on the cell culture
Conditions: rucaparib 20 µM (about IC30) or vehicle, present until read-out
Rucaparib or vehicle: Vehicle
Cell line: OCI-C5x (clear cell)
Measurement: 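Luminescent ATP-based viability assay read 72 or 96 h after transfection, depending on culture, given as normalised percent viability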
Scale: viability, normalised: higher = more viable cells remaining
Rule for the call: 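Active when normalised viability falls below 80 percent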
Calls: active = viability under 80%; inactive = viability 80% or more

gene,technical replicate,"viability, normalised (%)"
KMT5B,1,58 (active)
KMT5B,2,62.5 (active)
KMT5B,3,70.3 (active)
HDAC5,1,33.9 (active)
HDAC5,2,50.4 (active)
HDAC5,3,56.4 (active)
CLDN20,1,43.6 (active)
CLDN20,2,55.6 (active)
CLDN20,3,51.4 (active)
UTP3,1,43.5 (active)
UTP3,2,37.8 (active)
UTP3,3,52.8 (active)
MED21,1,54.4 (active)
MED21,2,49.1 (active)
MED21,3,54.3 (active)
CHD1,1,48.5 (active)
CHD1,2,55.6 (active)
CHD1,3,55.3 (active)
PCGF2,1,36.7 (active)
PCGF2,2,30 (active)
PCGF2,3,35.8 (active)

Reformatted: 5 of the entries above.
CHD1, technical replicate 2 → viability, normalised (%) = 55.6 (active)
CHD1, technical replicate 3 → viability, normalised (%) = 55.3 (active)
PCGF2, technical replicate 1 → viability, normalised (%) = 36.7 (active)
PCGF2, technical replicate 2 → viability, normalised (%) = 30 (active)
PCGF2, technical replicate 3 → viability, normalised (%) = 35.8 (active)

The results go on.
gene,technical replicate,"viability, normalised (%)"
MED30,1,39.6 (active)
MED30,2,41.5 (active)
MED30,3,38.4 (active)
GCK,1,53.8 (active)
GCK,2,52.3 (active)
GCK,3,56.7 (active)
TLE1,1,32.7 (active)
TLE1,2,36.9 (active)
TLE1,3,49.4 (active)
SOX21,1,32.8 (active)
SOX21,2,38.3 (active)
SOX21,3,34.9 (active)
SMAD2,1,45.4 (active)
SMAD2,2,45.3 (active)
SMAD2,3,51.7 (active)
HMGA2,1,18.5 (active)
HMGA2,2,34.8 (active)
HMGA2,3,35.1 (active)
